For this experiment, the system named is CWR22R. The experiment in a line: cells. Format: functional, cell-based. The conditions noted are these: Homo sapiens, 22Rv1, 48 h.

`C[C@](O)(Cn1cc(F)cn1)C(=O)Nc1ccc(C#N)c(C(F)(F)F)c1` showed an IC50 of 12.9 µM.

The values are drawn from ChEMBL document CHEMBL5518238, “Structure-Activity Relationship (SAR) Studies of Novel Monovalent AR/AR-V7 Dual Degraders with Potent Efficacy against Advanced Prostate Cancer” (J Med Chem, 2024).
